Like-named read-outs stand apart in the source and are kept apart here. At least one structure is not confirmed: it was looked up by name or label, or the drawing left a doubt.
System: yeast cells overexpressing WT alpha-synuclein
Format: cell-based, Saccharomyces cerevisiae

SMILES	effect on the growth of yeast cells overexpressing WT alpha-synuclein (agent at 100 μM)	effect on the growth of yeast cells overexpressing WT alpha-synuclein (agent at 50 μg/ml)
O=C(O)C1=CC(=C(c2ccc(O)c(C(=O)O)c2)c2ccc(O)c(C(=O)O)c2)C=CC1=O [aurintricarboxylic acid]	negative effect on the growth	
CC[n+]1c(-c2ccccc2)c2cc(N)ccc2c2ccc(N)cc21 [ethidium bromide]		negative effect on the growth
